In ChEMBL document CHEMBL4296182, “CO-ADD screening of NIH NCI Diversity Set V”:
This is one part of the list. Results with a measured potency or affinity are listed apart.

system: Pseudomonas aeruginosa; conditions: Concentration 20 uM; ASSAY_TEST Inhibition of Bacterial Growth; detection method Absorption (OD600); MEDIA CAMHB; plate type 384well; NBS; CORNING #3640; time 18 hr

First: CCCn1cnc2c(S)nc(N)nc21
Second: CCOc1nc(OCC)c2cnn(C)c2n1
The Inhibition of the first is higher: 12.17% for the first, 3.02% for the second.

Compared with `CC(C)(c1cc(Cl)c(O)c(CN2CCOCC2)c1)c1cc(Cl)c(O)c(CN2CCOCC2)c1`, `Cc1cc(N2CCOCC2)nc(N2CCOCC2)n1` is lower in Inhibition: 12.85% for the first, 5.3% for the second.

Compared with `CCOc1ccc(NC(=O)N(O)C2(C#N)CCCCC2)cc1`, `CCOc1ccc(/C=C2\NC(=S)NC2=O)cc1` is lower in Inhibition: 21.11% for the first, 1.39% for the second.

Compared with `O=C(Nc1ccc(C2=NCCCN2)cc1)Nc1ccc(C2=NCCCN2)cc1`, `O=C(Nc1ccc2ncccc2c1)Nc1ccc2ncccc2c1` is lower in Inhibition: 26.29% for the first, 18.61% for the second.

First: Nc1nc(N)nc(-c2ccccc2-c2nc(N)nc(N)n2)n1
Second: Nc1nc(N)c(/N=N/c2ccc(S(N)(=O)=O)cc2)c(O)n1
The Inhibition of the first is lower: 1.51% for the first, 6.5% for the second.

First: O=C1Nc2ccccc2C1(c1ccc(O)cc1)c1ccc(O)cc1 [OXYPHENISATINE]
Second: Oc1ccccc1/N=C/c1c(O)ccc2ccccc12
The Inhibition of the first is higher: 16.79% for the first, 7.65% for the second.

Going from `CCc1oc2ccccc2c1C(=O)c1cc(Br)c(O)c(Br)c1` [BENZBROMARONE] to `O=C(Nc1cccc([N+](=O)[O-])c1)c1cc2ccccc2cc1O`, the Inhibition rises from 1.35% to 21.6%.

Compared with `O[C@@H](c1cc(-c2ccc(C(F)(F)F)cc2)nc(C(F)(F)F)c1)[C@H]1CCCCN1`, `CC(C)c1cc(C(F)(F)F)nc(NNc2nc(C(C)C)cc(C(F)(F)F)n2)n1` is lower in Inhibition: 9.48% for the first, 8.62% for the second.

Compared with `CCOC(=O)c1c(N=C(S)NC)sc2c1CCCC2`, `CCOC(=O)C1(C#N)C(=O)CS/C1=N/c1ccccc1Cl` (stereo not given) is higher in Inhibition: 5.91% for the first, 17.1% for the second.

Going from `O=C(c1ccccc1)c1ccccc1C(=O)c1ccccc1` to `c1ccc(Nc2cccc3c(Nc4ccccc4)cccc23)cc1`, the Inhibition rises from 8.27% to 21.7%.

First: NS(=O)(=O)c1cc2c(cc1Cl)NC(CC1CCCC1)NS2(=O)=O (stereo not given) [CYCLOPENTHIAZIDE]
Second: Oc1cc(CNC2CCCCC2)c(O)cc1CNC1CCCCC1
The Inhibition of the first is lower: -3.46% for the first, 10.65% for the second.

Compared with `C=C(C)C(=O)Nc1ccc(NC(C)C)cc1`, `CC(C)NC(=O)c1ccc(C(C)C)cc1` is higher in Inhibition: 8.99% for the first, 17.9% for the second.

Compared with `Cc1cccc(C)c1NC(=O)Nc1ccc(S(N)(=O)=O)cc1`, `CNC(=O)Nc1ccc(S(N)(=O)=O)cc1` is lower in Inhibition: 24.19% for the first, 1.61% for the second.

Going from `CC1=NC2=CC=CC3=NC(C(Cl)(Cl)Cl)=NC(=N1)N23` to `Cc1ccc2nc(Cl)cc(=O)n2c1`, the Inhibition falls from 29.35% to -9.28%.

First: CC(=O)O.COc1ccc2nccc(/C=C/c3ccnc4ccc(OC)cc34)c2c1
Second: COc1ccc2[nH]c(-c3ccccc3)cc2c1
The Inhibition of the first is higher: 14.57% for the first, 2.74% for the second.

Compared with `Cc1cc(=O)n2c3c(c4c(cc13)c(CN(C)C)cc(=O)n4C)OC2.Cl`, `O=C1c2cccc3cc([N+](=O)[O-])cc(c23)C(=O)N1CCN1CCCC1` [PINAFIDE] is lower in Inhibition: 16.74% for the first, -4.11% for the second.

Going from `CCOC(=O)N1CCN(Cc2c(O)ccc3ccccc23)CC1` to `COc1ccc(C(=S)N2CCN(c3ccccc3C)CC2)cc1`, the Inhibition falls from 17.88% to 16.4%.

Going from `CN(C)C(=O)OCC1COc2ccccc2O1` (stereo not given) to `CCCCNC(=O)Nc1ccccc1CC`, the Inhibition falls from 10.66% to -8.63%.

Going from `O=C(C(Cl)Cl)N1CC2CCC(CC2)C1` to `CCCCCC(=O)N1CCCCC1`, the Inhibition rises from -21.94% to 16.11%.

First: O=c1[nH]nc(-c2cc(-c3ccccc3)nc3ccccc23)o1
Second: Fc1ccc(-c2cc(-c3cccs3)cc(-c3ccccc3)n2)cc1
The Inhibition of the first is higher: 5.98% for the first, -3.81% for the second.

Going from `CN(C)c1ccc(/C=C/c2ccc3ccccc3n2)cc1` to `C(=C\c1ccc(/C=C/c2ccccc2)nn1)/c1ccccc1`, the Inhibition rises from -0.15% to 3.75%.

First: C[C@@]1(c2ccccc2)O[C@@H]2C[C@H]3[C@@H]4CCC5=CC(=O)C=C[C@]5(C)[C@@]4(F)[C@@H](O)C[C@]3(C)[C@]2(C(=O)CO)O1 [AMCINAFIDE]
Second: CC1(C)CC(Nc2ccc(Nc3ccccc3)cc2)CC(C)(C)N1
The Inhibition of the first is higher: 12.73% for the first, 9.92% for the second.

Compared with `CCSc1nc(C)c(C)c(O)n1`, `CCOCc1cc(O)nc(SC)n1` is higher in Inhibition: 15.41% for the first, 23.12% for the second.

Compared with `O=C(/C=C/c1ccccc1)CC(c1ccccc1)N1CCOCC1` (stereo not given), `CSc1ccc2c(c1)C(N1CCN(C)CC1)Cc1ccccc1S2.O=C(O)/C=C\C(=O)O` (stereo not given) is lower in Inhibition: 14.74% for the first, 12.2% for the second.

Compared with `Nc1ccn(C2OC(CCl)C(O)C2O)c(=O)n1` (stereo not given), `N=C(N)Nc1nc2cc([N+](=O)[O-])ccc2[nH]1` is lower in Inhibition: 16.62% for the first, 14.75% for the second.

Going from `C=CCN(CC=C)C(=O)Nc1cc(OC)ccc1OC` to `COC(=O)c1c[n+]([O-])ccc1OC`, the Inhibition falls from 6.27% to -11.94%.

Going from `COC(=O)C1=CC(=O)N2CCN=C2S1` to `CSc1nc(N)c(C(=O)NC2CCCCC2)s1`, the Inhibition rises from -6.18% to 6.56%.

Going from `CC1(C)SC(C)(C)N(C=O)C1C(=O)O` (stereo not given) to `C/C(=N\O)C1CC(CC(=O)O)C1(C)C` (stereo not given), the Inhibition rises from 3.14% to 4.37%.

Compared with `FC(F)(F)c1cccc(OCC2CN=C(S)O2)c1` (stereo not given), `COc1cccc(NC(S)=Nc2ccc(O)cc2)c1` is higher in Inhibition: -3.56% for the first, 14.19% for the second.

First: COC1OCC(O)C(NC(=O)N(C)N=O)C1O (stereo not given)
Second: COC1OC(O)C(NC(=O)C(F)(F)F)CC1O (stereo not given)
The Inhibition of the first is lower: -13.74% for the first, 6.88% for the second.

Going from `CCOC(=O)Nc1cc2c(c(N)n1)N=C(c1ccccc1)CN2` to `O=C(Nc1cc(-c2ccccc2)[nH]n1)c1ccc(Cl)cc1`, the Inhibition falls from 29.95% to 14.87%.

Compared with `CC(C)NCC1CCc2cc(CO)c([N+](=O)[O-])cc2N1` (stereo not given) [OXAMNIQUINE], `Nc1cc([N+](=O)[O-])ccc1N1C(=O)CCCC1=O` is lower in Inhibition: 6.47% for the first, -10.8% for the second.

Compared with `Cc1nc([N+](=O)[O-])cn1-c1nc2ccccn2c1[N+](=O)[O-]`, `Clc1nnc2c3ccccc3ccn12` is lower in Inhibition: 13.8% for the first, 5.64% for the second.

First: COc1cc2c(O)cc(C(=O)O)c(-c3cc(OC)c(OC)c(OC)c3)c2cc1OC
Second: CCOC(=O)c1cc2c(OC)c(OC)ccc2c2ncc(C#N)c(O)c12
The Inhibition of the first is higher: 14.45% for the first, -12.49% for the second.

Compared with `CSC(=O)NC(=O)NC(=O)c1ccc([N+](=O)[O-])cc1`, `O=C(NCc1ccco1)Nc1ccc([N+](=O)[O-])cc1` is lower in Inhibition: 11.58% for the first, 3.36% for the second.

Going from `O=[N+]([O-])c1cccnc1Oc1cc(Cl)c(Cl)cc1Cl` to `Cc1cc(NC(=O)Nc2cc(Cl)ccc2C)no1`, the Inhibition falls from 15.86% to -7.38%.

Compared with `Nc1ccc2c(c1Cl)C(=O)c1ccc(N)c(Cl)c1C2=O`, `CN(C)N1C(=O)c2c(Cl)c(Cl)c(Cl)c(Cl)c2C1=O` is lower in Inhibition: 19.37% for the first, 4.73% for the second.

Compared with `Cn1c(C(=O)c2ccncc2)cc2ccccc21`, `N#CC1=C(Nc2ccccc2Cl)SC(c2ccncc2)NC1=O` (stereo not given) is higher in Inhibition: -4.83% for the first, 9.53% for the second.

Compared with `Cc1c(Cl)cccc1NC(=O)CC1Sc2ccccc2NC1=O` (stereo not given), `O=C(Nc1ccc(Br)cc1)Nc1ccccc1Cl` is higher in Inhibition: -8.25% for the first, 26.46% for the second.

Going from `CCC12CCCN3CCc4c(n(c5ccccc45)C(O)(C(=O)OC)C1)C32` (stereo not given) to `CC(C)(CO)N1CCN(C(S)=Nc2ccccc2)CC1`, the Inhibition falls from 20.2% to 1%.

Going from `Cc1ccccc1N=C(S)Nc1ccccn1` to `Cc1cccc2cc3cccc(C)c3nc12`, the Inhibition rises from -17.56% to -7.22%.

Going from `NC(=O)NC1NC(=O)NC1=O` (stereo not given) [ALLANTOIN] to `O=C(Cn1ccc(=O)[nH]c1=O)Nc1ccc(C(=O)O)c(O)c1`, the Inhibition rises from 15.75% to 23.69%.

Going from `CCCSc1nc2c(c(=O)n(C)c(=O)n2C)n1C` to `CCC(C)Oc1nc2c(c(=O)n(C)c(=O)n2C)n1C` (stereo not given), the Inhibition rises from 1.88% to 8.41%.

First: Nc1ccc(/N=N/c2ccc(O)cc2)c(N)n1
Second: Cc1ccc(/N=N\c2c(O)ccc3[nH]nnc23)cc1
The Inhibition of the first is lower: -9.14% for the first, 9.05% for the second.

Going from `CSc1nc(O)cc(Cl)n1` to `CSc1nc(Cl)c(Br)c(Nc2cnc(O)nc2O)n1`, the Inhibition falls from 17.53% to 9.57%.

Compared with `COc1ccc(C(=S)N2CCN(c3cccc(Cl)c3)CC2)cc1`, `COc1ccc(C(=S)N2CCN(c3ccccc3Cl)CC2)cc1OC` is higher in Inhibition: 18.9% for the first, 26.87% for the second.

First: CCOC(=O)c1nnsc1-c1ccc(-c2snnc2C(=O)OCC)cc1
Second: CCCCCCC(C)OC(=O)c1ccccc1C(=O)O (stereo not given)
The Inhibition of the first is higher: 22.55% for the first, 7.8% for the second.

Compared with `CCCNC(=O)Nc1ccc(C)cc1C`, `NNC(=O)CNc1cccc(Br)c1` is higher in Inhibition: -13.16% for the first, 8.54% for the second.

Going from `CC(C)(C)CC(C)(C)N1CN=C(S)NC1` to `Cc1cc(S)nc(S)n1`, the Inhibition rises from 8.12% to 23.56%.

First: O=C1OCC/C1=C\c1ccc(O)cc1
Second: Clc1cc2c(c(CSc3nc4ccccc4n4cccc34)c1)OCOC2
The Inhibition of the first is lower: -1.55% for the first, 5.73% for the second.

Going from `c1ccc2sc(SCSc3nc4ccccc4s3)nc2c1` to `CN(C)CCCN1c2ccc3ccccc3c2Sc2cccc(Cl)c21`, the Inhibition rises from 9.26% to 26.35%.

Compared with `O=S1(=O)CCC(N(/N=C/c2ccco2)c2ccccc2)C1` (stereo not given), `c1ccc(-c2ccc3c(c2)NC(C2Nc4cc(-c5ccccc5)ccc4O2)O3)cc1` (stereo not given) is higher in Inhibition: 8.08% for the first, 27.19% for the second.

Going from `CC1=CC2C(C(O)CC3(C)C2CC(C)C32OCOC23COCO3)C2(C)C/C(=C/O)C(=O)C=C12` (stereo not given) to `CC1OC1c1ccc(-c2ccc(C3OC3C)cc2)cc1` (stereo not given), the Inhibition falls from 18.62% to 7.26%.

First: O=C(O)C1=NN(c2cc(Cl)c(S(=O)(=O)O)cc2Cl)C(=O)C1
Second: O=C1C(Cl)=C(O)C2(Cl)C(Cl)=C(Cl)C12Cl (stereo not given)
The Inhibition of the first is higher: 30.79% for the first, 1.43% for the second.

First: NC(=O)c1ncn2c(=O)n(CCCl)nnc12 [MITOZOLOMIDE]
Second: Cc1cc(O)c2c(O)[nH]nc2n1
The Inhibition of the first is lower: 5.29% for the first, 7.39% for the second.
